Results deposited as PubChem BioAssay AID1224826 (NIAID, 2016)

Assay: 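Knock-downs that raise or lower Tnf reporter signal after endotoxin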 (primary screen)
Cell system: RAW264.7 G9 macrophages from mouse bearing reporters for p65 (GFP) and the Tnf promoter (mCherry)
Knock-down reagent: siRNA pool against mouse genes, 100 nM
Duration: 16 h of LPS stimulation, after 2 days of siRNA transfection
Treatment: bacterial lipopolysaccharide (Salmonella minnesota R595), 10 ng/ml
Measurement: 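Imaged Tnf reporter mCherry in nuclei, minus background, normalised per plate to the median and expressed as robust z-scores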
Direction: Tnf reporter robust z-score: higher = stronger Tnf promoter reporter signal after LPS
Active means: 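a well counts as active at a score of -1.3 or below (Tlr4 knock-down control median) or above 3 (raised signal); controls and wells holding fewer than 50 cells are excluded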
Meaning of the calls: active = Tnf reporter clearly lowered or raised; inactive = no clear change in Tnf reporter
Here is an unselected part of about 17,000 deposited reagents. About 1,110 of all reagents (6.6%) count as active. 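Active means lowered or raised reporter signal; replicate intensities are raw and not normalised per plate.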 Unmarked entries are inactive. Some reagents were tested in more than one well and are listed for each. Further read-outs or replicates are left out here.

Target gene | Tnf reporter robust z-score | fewer than 50 cells in well
Srrt (serrate RNA effector molecule homolog (Arabidopsis)) | -1.67 (active) | enough cells in well
Gcsh | -0.29 | enough cells in well
Oxtr (oxytocin receptor) | -0.72 | enough cells in well
Wipi2 (WD repeat domain, phosphoinositide interacting 2) | 0.43 | enough cells in well
Bco1 (beta-carotene oxygenase 1) | 2.09 | enough cells in well
3010003L21Rik (RIKEN cDNA 3010003L21 gene) | – | fewer than 50 cells per well; well left out of calls
Polr3h (polymerase (RNA) III (DNA directed) polypeptide H) | – | fewer than 50 cells per well; well left out of calls
Mbd1 (methyl-CpG binding domain protein 1) | -0.49 | enough cells in well
C130021I20Rik (Riken cDNA C130021I20 gene) | -0.88 | enough cells in well
Cep128 (centrosomal protein 128) | -0.05 | enough cells in well
Phyhip (phytanoyl-CoA hydroxylase interacting protein) | -1.06 | enough cells in well
Sidt1 (SID1 transmembrane family, member 1) | -0.04 | enough cells in well
Asl (argininosuccinate lyase) | 1.13 | enough cells in well
Pdlim3 (PDZ and LIM domain 3) | 0.5 | enough cells in well
C1d (C1D nuclear receptor co-repressor) | -0.58 | enough cells in well
Rs1 (retinoschisis (X-linked, juvenile) 1 (human)) | -0.43 | enough cells in well
Smpdl3a (sphingomyelin phosphodiesterase, acid-like 3A) | – | fewer than 50 cells per well; well left out of calls
Kl (klotho) | 0.45 | enough cells in well
Tomm70a (translocase of outer mitochondrial membrane 70A) | 1.56 | enough cells in well
Phaf1 (phagosome assembly factor 1) | 1.28 | enough cells in well
Tle1 (transducin-like enhancer of split 1) | -0.89 | enough cells in well
Plcxd3 | -0.86 | enough cells in well
Homez (homeodomain leucine zipper-encoding gene) | 0.02 | enough cells in well
Krt90 (keratin 90) | – | fewer than 50 cells per well; well left out of calls
LTO1 (ABCE maturation factor) | 0.72 | enough cells in well
Nrbp1 (nuclear receptor binding protein 1) | -1.72 (active) | enough cells in well
Colgalt2 (collagen beta(1-O)galactosyltransferase 2) | 0.16 | enough cells in well
Dennd2b (DENN domain containing 2B) | 0.06 | enough cells in well
Or51a5 (olfactory receptor family 51 subfamily A member 5) | -1.47 (active) | enough cells in well
Nedd1 | -0.66 | enough cells in well
Ccndbp1 (cyclin D-type binding-protein 1) | 0.13 | enough cells in well
Tpbpb (trophoblast specific protein beta) | – | fewer than 50 cells per well; well left out of calls
Tmem100 (transmembrane protein 100) | 2.89 | enough cells in well
9230112E08Rik (RIKEN cDNA 9230112E08 gene) | 1.53 | enough cells in well
9230112E08Rik (RIKEN cDNA 9230112E08 gene) | 0.33 | enough cells in well
Ap2s1 (adaptor-related protein complex 2, sigma 1 subunit) | 0.52 | enough cells in well
Dcx (doublecortin) | -0.64 | enough cells in well
Larp4b (La ribonucleoprotein 4B) | -0.71 | enough cells in well
Tnrc6a (trinucleotide repeat containing 6a) | – | fewer than 50 cells per well; well left out of calls
Dmtf1l (cyclin D binding myb like transcription factor 1 like) | – | fewer than 50 cells per well; well left out of calls
Qsox1 (quiescin Q6 sulfhydryl oxidase 1) | 0.45 | enough cells in well
Csrp1 (cysteine and glycine-rich protein 1) | 0.38 | enough cells in well
Ear1 (eosinophil-associated, ribonuclease A family, member 1) | 0.41 | enough cells in well
Cwf19l2 (CWF19 like cell cycle control factor 2) | 0.43 | enough cells in well
Zfp146 (zinc finger protein 146) | 1.01 | enough cells in well
Mat2b | 0.5 | enough cells in well
Stip1 (stress-induced phosphoprotein 1) | -0.6 | enough cells in well
Zfand6 (zinc finger, AN1-type domain 6) | – | fewer than 50 cells per well; well left out of calls
Hao2 (hydroxyacid oxidase 2) | 0.2 | enough cells in well
Usp38 (ubiquitin specific peptidase 38) | -0.1 | enough cells in well
Tnk2 (tyrosine kinase, non-receptor, 2) | – | fewer than 50 cells per well; well left out of calls
Grcc10 (gene rich cluster, C10 gene) | -0.15 | enough cells in well
Shank3 (SH3 and multiple ankyrin repeat domains 3) | 1.66 | enough cells in well
Or5a1 (olfactory receptor family 5 subfamily A member 1) | – | fewer than 50 cells per well; well left out of calls
Syt9 (synaptotagmin IX) | – | fewer than 50 cells per well; well left out of calls
Or52s1 (olfactory receptor family 52 subfamily S member 1) | -0.97 | enough cells in well
Rnpc3 (RNA-binding region (RNP1, RRM) containing 3) | -0.54 | enough cells in well
Zbtb8os (zinc finger and BTB domain containing 8 opposite strand) | -0.38 | enough cells in well
